These are yes or no findings as the source states them, for the method shown. Binding seen in cells or lysates may run through a third protein. These calls come from enrichment with a bait or labelling near it, and not all partners need be listed. Sequences can lack the tags named with a protein.
B1: Methyltransferase-like protein 13 (enzyme, UniProt Q8N6R0-5 1-699)
chain: MNLLPKSSREFGSVDYWEKFFQQRGKKAFEWYGTYLELCGVLHKYIKPREKVLVIGCGNSELSEQLYDVGYRDIVNIDISEVVIKQMKECNATRRPQMSFLKMDMTQMEFPDASFQVVLDKGTLDAVLTDEEEKTLQQVDRMLAEVGRVLQVGGRYLCISLAQAHILKKAVGHFSREGWMVRVHQVANSQDQVLEAEPQFSLPVFAFIMTKFRPVPGSALQIFELCAQEQRKPVRLESAERLAEAVQERQQYAWLCSQLRRKARLGSVSLDLCDGDTGEPRYTLHVVDSPTVKPSRDNHFAIFIIPQGRETEWLFGMDEGRKQLAASAGFRRLITVALHRGQQYESMDHIQAELSARVMELAPAGMPTQQQVPFLSVGGDIGVRTVQHQDCSPLSGDYVIEDVQGDDKRYFRRLIFLSNRNVVQSEARLLKDVSHKAQKKRKKDRKKQRPADAEDLPAAPGQSIDKSYLCCEHHKAMIAGLALLRNPELLLEIPLALLVVGLGGGSLPLFVHDHFPKSCIDAVEIDPSMLEVATQWFGFSQSDRMKVHIADGLDYIASLAGGGEARPCYDVIMFDVDSKDPTLGMSCPPPAFVEQSFLQKVKSILTPEGVFILNLVCRDLGLKDSVLAGLKAVFPLLYVRRIEGEVNEILFCQLHPEQKLATPELLETAQALERTLRKPGRGWDDTYVLSDMLKTVKIV
B2: Histone-lysine N-methyltransferase SMYD3 (enzyme, UniProt Q9H7B4-1 1-428)
chain: MEPLKVEKFATAKRGNGLRAVTPLRPGELLFRSDPLAYTVCKGSRGVVCDRCLLGKEKLMRCSQCRVAKYCSAKCQKKAWPDHKRECKCLKSCKPRYPPDSVRLLGRVVFKLMDGAPSESEKLYSFYDLESNINKLTEDKKEGLRQLVMTFQHFMREEIQDASQLPPAFDLFEAFAKVICNSFTICNAEMQEVGVGLYPSISLLNHSCDPNCSIVFNGPHLLLRAVRDIEVGEELTICYLDMLMTSEERRKQLRDQYCFECDCFRCQTQDKDADMLTGDEQVWKEVQESLKKIEELKAHWKWEQVLAMCQAIISSNSERLPDINIYQLKVLDCAMDACINLGLLEEALFYGTRTMEPYRIFFPGSHPVRGVQVMKVGKLQLHQGMFPQAMKNLRLAFDIMRVTHGREHSLIEDLILLLEECDANIRAS

The chains behind the UniProt entries cited, without tags or fusion partners.
UniProt P01100: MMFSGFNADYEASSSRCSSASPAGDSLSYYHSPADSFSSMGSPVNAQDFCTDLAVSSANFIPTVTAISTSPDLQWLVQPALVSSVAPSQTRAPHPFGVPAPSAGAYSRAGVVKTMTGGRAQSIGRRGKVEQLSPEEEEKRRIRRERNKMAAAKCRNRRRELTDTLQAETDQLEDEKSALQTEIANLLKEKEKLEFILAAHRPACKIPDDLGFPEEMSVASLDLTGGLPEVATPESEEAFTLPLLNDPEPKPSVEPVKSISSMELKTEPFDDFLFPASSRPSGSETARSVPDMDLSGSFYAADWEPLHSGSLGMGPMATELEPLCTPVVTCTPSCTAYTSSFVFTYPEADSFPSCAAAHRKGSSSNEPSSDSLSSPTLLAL
UniProt Q96KQ7: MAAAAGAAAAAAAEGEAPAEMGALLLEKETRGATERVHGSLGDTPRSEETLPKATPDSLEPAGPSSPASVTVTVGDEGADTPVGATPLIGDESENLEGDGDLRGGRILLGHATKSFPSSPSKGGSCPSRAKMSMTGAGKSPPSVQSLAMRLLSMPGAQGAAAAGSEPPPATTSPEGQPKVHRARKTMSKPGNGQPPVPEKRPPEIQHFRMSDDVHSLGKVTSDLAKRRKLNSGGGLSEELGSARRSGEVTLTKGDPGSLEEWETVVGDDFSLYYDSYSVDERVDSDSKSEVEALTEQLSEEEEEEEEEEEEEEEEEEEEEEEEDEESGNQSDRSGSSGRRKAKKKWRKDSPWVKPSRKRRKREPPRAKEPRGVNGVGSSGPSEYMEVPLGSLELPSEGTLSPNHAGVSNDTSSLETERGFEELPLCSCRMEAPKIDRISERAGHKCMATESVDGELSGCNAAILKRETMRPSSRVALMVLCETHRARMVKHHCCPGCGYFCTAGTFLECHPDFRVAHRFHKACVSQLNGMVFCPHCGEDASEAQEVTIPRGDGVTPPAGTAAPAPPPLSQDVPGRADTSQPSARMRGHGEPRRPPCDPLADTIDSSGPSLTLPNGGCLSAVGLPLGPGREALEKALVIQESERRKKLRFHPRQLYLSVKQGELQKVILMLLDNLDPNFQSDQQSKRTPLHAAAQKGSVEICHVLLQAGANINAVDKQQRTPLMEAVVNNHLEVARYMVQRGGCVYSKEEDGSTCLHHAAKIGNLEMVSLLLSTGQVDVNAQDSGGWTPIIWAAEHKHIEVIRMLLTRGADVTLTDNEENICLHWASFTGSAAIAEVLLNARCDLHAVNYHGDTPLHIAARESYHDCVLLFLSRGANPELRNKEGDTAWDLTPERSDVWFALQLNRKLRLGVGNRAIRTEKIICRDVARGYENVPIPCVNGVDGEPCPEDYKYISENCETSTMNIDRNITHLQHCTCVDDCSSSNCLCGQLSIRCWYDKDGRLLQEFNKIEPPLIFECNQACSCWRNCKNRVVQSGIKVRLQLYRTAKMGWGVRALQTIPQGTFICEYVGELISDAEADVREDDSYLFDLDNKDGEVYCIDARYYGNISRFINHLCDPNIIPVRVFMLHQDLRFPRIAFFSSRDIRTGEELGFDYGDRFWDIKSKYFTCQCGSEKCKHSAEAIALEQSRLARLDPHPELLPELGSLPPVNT
UniProt Q9BZ95: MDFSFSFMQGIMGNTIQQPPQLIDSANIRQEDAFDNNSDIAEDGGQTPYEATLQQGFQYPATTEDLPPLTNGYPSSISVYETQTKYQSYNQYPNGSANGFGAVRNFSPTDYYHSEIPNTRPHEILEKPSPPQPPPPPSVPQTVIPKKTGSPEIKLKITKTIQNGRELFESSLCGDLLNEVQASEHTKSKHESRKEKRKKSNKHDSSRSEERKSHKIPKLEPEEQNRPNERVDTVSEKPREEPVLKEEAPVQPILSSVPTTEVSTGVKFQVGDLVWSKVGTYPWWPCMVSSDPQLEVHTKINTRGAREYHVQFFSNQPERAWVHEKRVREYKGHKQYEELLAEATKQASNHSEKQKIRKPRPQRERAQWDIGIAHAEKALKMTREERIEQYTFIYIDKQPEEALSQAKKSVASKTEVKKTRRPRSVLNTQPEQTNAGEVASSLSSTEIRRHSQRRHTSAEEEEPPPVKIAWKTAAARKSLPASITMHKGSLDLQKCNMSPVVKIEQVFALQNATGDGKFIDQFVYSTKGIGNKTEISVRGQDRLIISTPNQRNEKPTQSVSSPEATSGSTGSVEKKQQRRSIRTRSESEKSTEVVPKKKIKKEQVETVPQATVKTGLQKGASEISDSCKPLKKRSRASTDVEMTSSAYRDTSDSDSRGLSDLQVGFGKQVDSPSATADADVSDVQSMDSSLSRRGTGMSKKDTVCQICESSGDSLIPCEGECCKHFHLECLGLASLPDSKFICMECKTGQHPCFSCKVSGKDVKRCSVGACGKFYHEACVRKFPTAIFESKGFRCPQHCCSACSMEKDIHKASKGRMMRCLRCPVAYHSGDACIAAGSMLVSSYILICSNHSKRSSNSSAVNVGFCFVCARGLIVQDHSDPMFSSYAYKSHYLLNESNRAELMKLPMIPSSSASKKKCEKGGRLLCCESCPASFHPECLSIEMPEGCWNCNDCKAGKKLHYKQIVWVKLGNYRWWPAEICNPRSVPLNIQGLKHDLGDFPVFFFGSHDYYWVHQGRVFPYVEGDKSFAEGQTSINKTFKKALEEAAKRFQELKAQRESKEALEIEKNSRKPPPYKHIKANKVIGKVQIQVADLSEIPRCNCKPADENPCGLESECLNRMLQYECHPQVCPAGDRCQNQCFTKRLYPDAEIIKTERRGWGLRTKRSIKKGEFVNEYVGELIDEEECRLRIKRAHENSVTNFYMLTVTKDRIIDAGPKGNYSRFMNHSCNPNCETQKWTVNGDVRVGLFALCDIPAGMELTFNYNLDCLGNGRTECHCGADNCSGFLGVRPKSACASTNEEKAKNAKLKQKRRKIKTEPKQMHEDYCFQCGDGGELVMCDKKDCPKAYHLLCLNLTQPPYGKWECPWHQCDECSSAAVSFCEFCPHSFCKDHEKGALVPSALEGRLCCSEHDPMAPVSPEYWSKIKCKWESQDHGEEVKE
UniProt O15047: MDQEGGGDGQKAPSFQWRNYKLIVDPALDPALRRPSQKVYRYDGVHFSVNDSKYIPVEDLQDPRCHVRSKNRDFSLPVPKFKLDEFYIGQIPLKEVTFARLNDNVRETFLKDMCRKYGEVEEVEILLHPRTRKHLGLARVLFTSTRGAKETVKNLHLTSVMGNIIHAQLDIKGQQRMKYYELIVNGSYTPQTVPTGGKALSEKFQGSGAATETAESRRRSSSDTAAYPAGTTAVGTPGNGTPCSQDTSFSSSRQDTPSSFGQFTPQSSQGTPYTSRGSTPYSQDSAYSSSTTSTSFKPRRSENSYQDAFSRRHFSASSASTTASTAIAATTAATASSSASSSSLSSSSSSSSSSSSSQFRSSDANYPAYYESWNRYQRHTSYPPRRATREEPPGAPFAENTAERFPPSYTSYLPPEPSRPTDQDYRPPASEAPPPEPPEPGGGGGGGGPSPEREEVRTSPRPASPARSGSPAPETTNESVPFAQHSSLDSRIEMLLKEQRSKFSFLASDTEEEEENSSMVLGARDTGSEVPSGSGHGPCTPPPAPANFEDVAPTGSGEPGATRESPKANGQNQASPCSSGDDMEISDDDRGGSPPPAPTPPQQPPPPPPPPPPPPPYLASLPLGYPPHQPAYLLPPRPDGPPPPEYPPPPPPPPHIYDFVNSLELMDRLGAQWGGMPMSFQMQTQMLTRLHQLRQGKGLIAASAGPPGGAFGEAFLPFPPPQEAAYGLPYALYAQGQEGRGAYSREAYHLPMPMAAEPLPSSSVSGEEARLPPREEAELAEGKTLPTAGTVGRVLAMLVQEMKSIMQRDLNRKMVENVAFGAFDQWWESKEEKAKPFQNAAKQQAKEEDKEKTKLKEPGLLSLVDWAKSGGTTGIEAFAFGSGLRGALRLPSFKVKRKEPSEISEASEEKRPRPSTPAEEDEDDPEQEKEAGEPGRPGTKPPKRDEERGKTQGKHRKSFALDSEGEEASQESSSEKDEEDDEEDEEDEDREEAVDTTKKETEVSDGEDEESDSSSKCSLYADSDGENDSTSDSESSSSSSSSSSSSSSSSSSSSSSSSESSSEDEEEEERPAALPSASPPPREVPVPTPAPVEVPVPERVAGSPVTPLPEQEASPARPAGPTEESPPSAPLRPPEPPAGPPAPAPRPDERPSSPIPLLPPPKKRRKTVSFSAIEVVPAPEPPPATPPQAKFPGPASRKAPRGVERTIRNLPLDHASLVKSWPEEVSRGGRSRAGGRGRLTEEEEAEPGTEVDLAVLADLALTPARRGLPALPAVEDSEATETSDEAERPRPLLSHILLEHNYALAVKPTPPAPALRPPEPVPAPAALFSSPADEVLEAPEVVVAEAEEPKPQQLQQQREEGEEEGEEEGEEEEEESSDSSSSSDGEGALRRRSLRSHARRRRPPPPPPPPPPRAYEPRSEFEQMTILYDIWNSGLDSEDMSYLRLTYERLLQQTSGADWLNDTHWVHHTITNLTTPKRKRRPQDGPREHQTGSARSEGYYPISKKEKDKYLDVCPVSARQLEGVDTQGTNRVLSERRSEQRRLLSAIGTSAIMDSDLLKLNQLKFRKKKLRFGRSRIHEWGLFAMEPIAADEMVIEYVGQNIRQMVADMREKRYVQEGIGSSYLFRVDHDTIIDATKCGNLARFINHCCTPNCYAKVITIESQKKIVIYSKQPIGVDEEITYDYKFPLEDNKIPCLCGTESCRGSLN
UniProt O14744: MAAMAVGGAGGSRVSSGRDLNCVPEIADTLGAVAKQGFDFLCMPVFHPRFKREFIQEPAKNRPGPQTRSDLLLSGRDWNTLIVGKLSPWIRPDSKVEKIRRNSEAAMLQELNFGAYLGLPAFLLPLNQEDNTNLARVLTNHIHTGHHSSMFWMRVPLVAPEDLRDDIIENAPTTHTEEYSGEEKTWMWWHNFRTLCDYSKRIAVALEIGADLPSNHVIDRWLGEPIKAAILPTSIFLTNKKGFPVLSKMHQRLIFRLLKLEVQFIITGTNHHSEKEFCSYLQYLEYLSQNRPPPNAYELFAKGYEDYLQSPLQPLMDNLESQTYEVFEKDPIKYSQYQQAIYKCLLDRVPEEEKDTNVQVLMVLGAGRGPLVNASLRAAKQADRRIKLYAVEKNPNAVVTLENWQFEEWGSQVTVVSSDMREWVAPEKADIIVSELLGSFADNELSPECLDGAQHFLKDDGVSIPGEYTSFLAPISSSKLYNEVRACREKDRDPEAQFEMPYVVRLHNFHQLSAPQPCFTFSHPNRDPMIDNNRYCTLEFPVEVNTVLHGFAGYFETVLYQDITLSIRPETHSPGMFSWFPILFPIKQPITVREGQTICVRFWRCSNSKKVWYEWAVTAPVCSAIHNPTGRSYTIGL

target: Myc-c-Fos (human) (UniProt P01100); assay: affinity purification with mass spectrometry; anti-Myc immunoprecipitate from Myc-c-Fos-overexpressing cells; SDS-PAGE, in-gel trypsin digestion, SCX LC with mass spectrometry

binding	Molecule
binds	Histone-lysine N-methyltransferase EHMT2 (from UniProt Q96KQ7 1-1210) (enzyme)
binds	Histone-lysine N-methyltransferase NSD2 (from UniProt O96028-1 1-1365) (enzyme)
binds	Histone-lysine N-methyltransferase NSD3 (from UniProt Q9BZ95 1-1437) (enzyme)
binds	Histone-lysine N-methyltransferase SETD1A (from UniProt O15047 1-1707) (enzyme)
binds	Protein arginine N-methyltransferase 5 (from UniProt O14744 1-637) (enzyme)
binds	B1
binds	B2

Source: PMC10411464
